## Screening data, single-dose tests

The values are deposited in ChEMBL (CHEMBL3988442, “University of Dundee, Small-Polar-MMV Screening Library” (2021)).

Results are given as percent effect. How 0% and 100% were set is not recorded. Most values in the screen are low, and negative values occur. Compounds were drawn at random from those tested, without regard to their results.

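Assay of Toxoplasma gondii numbers, read through their beta-galactosidase reporter with a colour substrate. Compounds at 50 µM. Higher reads as fewer parasites (inferred from which compounds were picked for retests). About 18,000 compounds were tested under these conditions; 0.94% (about 170) showed 50% or more at least once.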

compound,Percent Effect
CCc1cc(N2CCN(CCO)CC2)n2nccc2n1,-2.878%
CC1CN=C(N2CCN(CCc3ccccn3)CC2)S1 (stereo not given),3.711%
CSc1ncc(C(=O)NCC2CCOC2)cn1 (stereo not given),-5.142%
Cc1cccn2cc(CCNS(C)(=O)=O)nc12,-4.337%
OCCN1CCN(c2nc3ccccc3o2)CC1,-12.8%
O=C(CCc1cc(Cl)no1)N1CCCC2(CCOC2)C1 (stereo not given),7.733%
CC(CNC(=O)c1cn2ccccc2n1)N1CCCC1 (stereo not given),3.745%
CC1CN(CCC(=O)Nc2cccnc2)CCCO1 (stereo not given),5.708%
CC1c2cccn2CCN1CC(N)=O (stereo not given),-9.768%
COC(=O)CCSc1nncs1,2.326%
COCCn1ccnc1CN1CCC(C#N)CC1,-2.724%
CNS(=O)(=O)c1c[nH]cn1,-8.669%
CC1(C)C(=O)CCCN1Cc1ccccc1,32.34%
Nc1ncnc(N2CCC(CO)CC2)c1Cl,0.7527%
CCS(=O)(=O)c1cncnc1N,2.38%
CNCC1CCN(C(=O)c2cc(Br)c[nH]2)C1 (stereo not given),-2.299%
COc1ccccc1NC(=O)NC1CCN(C)CC1,5.082%
CNCc1csc(C(C)C)n1,0.9072%
CCOC(=O)CNC(=O)NCCc1ccc(OC)cc1,-17.09%
CN(CC(=O)N1CCNC1=O)CC1CCCCC1,13.95%
Cc1ccncc1C(=O)N1CCn2cncc2C1,-5.557%
CN(CC(=O)Nc1ncccc1O)C1CCS(=O)(=O)C1 (stereo not given),-9.806%
CC(=O)c1cc[nH]n1,22%
O=C1CCOc2c(F)ccc(F)c21,1.299%
COCCn1cc(CNC(=O)N2CCCC2)cn1,-9.612%
O=c1c2ccccc2ncn1CCc1ccccn1,-23.18%
Cc1nc(CN(C)CC(=O)Nc2ccn(C)n2)no1,-10.57%
CSC(C)C(=O)Nc1ccc(Cl)c(C(=O)N(C)C)c1 (stereo not given),8.458%
Cc1cc(C)n2nc(SCC(N)=O)nc2n1,0.2327%
CC(C)C(=O)Nc1ccc(N2CCOCC2)nc1,4.885%
CC(C)CC(=O)NCCc1ccc(S(N)(=O)=O)s1,5.333%
Cc1n[nH]c(C)c1CNc1cc([C@H]2C[C@@H](O)C2)ncn1,-3.624%
CCc1nccn1CCCn1cnnc1,7.078%
Cc1ccccc1C(=O)N[C@@H]1CN(C)C[C@H]1CN(C)C,-6.465%
CCC(C)C(=O)Nc1nccs1 (stereo not given),-54.41%
COCC(C)(NCC(N)=O)c1ccccc1 (stereo not given),-0.4723%
Cc1cccnc1NC(=O)CCc1cnn(C)c1,-0.3053%
CC(C)NC(=O)Cc1ccsc1,-0.4383%
CC(=O)N1CC(NC(=O)c2cccc(Br)c2Cl)C1,-5.281%
Cc1nc(CNC(=O)c2ccccc2)no1,-15.04%
CN(C)c1noc(C2CCCN2)n1 (stereo not given),-6.592%
OCc1cc(C(F)F)n[nH]1,-11.77%
NCCCNC(=O)c1ccccc1,22.56%
CSCCC(O)C(=O)NCCCn1ccnn1 (stereo not given),-12.23%
CC(C)(C)OC(=O)c1cncc(N)c1,-1.13%
Cc1cc(C(=O)NC2CCC(=O)N(C)C2)c(C)o1 (stereo not given),-6.044%
COCCSCC(=O)Nc1cccc(C#N)c1,-2.328%
COc1ncccc1Cn1ccc2ncccc2c1=O,6.372%
CC(C)(C)c1nc(CCN)no1,-1.731%
c1ccn2c(CC3CCCNC3)nnc2c1 (stereo not given),4.526%
CC(=O)c1cc(CN2CC[C@](C)(O)[C@@H](O)C2)n(C)c1,-14.71%
CC(=O)N1N=C(c2cccnc2)CC1c1ccco1 (stereo not given),88.79%
Nc1ccnc(CC2CC(=O)N(c3ccccc3)C2)n1 (stereo not given),-17.47%
NC(c1ccc(Cl)cc1)c1ncon1 (stereo not given),1.731%
COC(=O)CNC(=O)CCc1nc2ccccc2s1,3.341%
c1ccc2c(CC3COCCN3)c[nH]c2c1 (stereo not given),-2.648%
CC(C)(CC(N)=O)NC(=O)C1CC=CC1,-12.83%
C=C(C)CN(CC)C(=O)CN1CCC(O)CC1,20.23%
O=C(C1CCCN(C2CCNCC2)C1)N1CCCC1 (stereo not given),22.31%
CC(C)(O)C1CCCN1C(=O)c1n[nH]c2ccccc12 (stereo not given),-1.431%
O=C(Cn1ccc2ccccc21)N1CCCC1,-10.03%
CCCC(N)C(=O)N(CC)Cc1ccoc1 (stereo not given),12.44%
CCNC(=O)C1CNC1,-8.625%
CCN(C(=O)CSc1ccncc1)[C@H]1COC[C@@H]1O,17.7%
N#Cc1ccc(CN2CCc3n[nH]c(=O)n3CC2)cc1,35.57%
COCC1CCN(C(=O)c2cc(C3CC3)on2)CC1,0.8767%

The first 7 entries again:

* CCc1cc(N2CCN(CCO)CC2)n2nccc2n1 : -2.878%
* CC1CN=C(N2CCN(CCc3ccccn3)CC2)S1 (stereo not given) : 3.711%
* CSc1ncc(C(=O)NCC2CCOC2)cn1 (stereo not given) : -5.142%
* Cc1cccn2cc(CCNS(C)(=O)=O)nc12 : -4.337%
* OCCN1CCN(c2nc3ccccc3o2)CC1 : -12.8%
* O=C(CCc1cc(Cl)no1)N1CCCC2(CCOC2)C1 (stereo not given) : 7.733%
* CC(CNC(=O)c1cn2ccccc2n1)N1CCCC1 (stereo not given) : 3.745%